Assay results published in patent US6465479B1, “Pyridomorphinans and use thereof” (Southern Research Institute, priority 1999, dated 2002).

System: male ICR mice
Experiment: Acetic acid writhing assay, antinociception, tolerance and antagonist pretreatment
Assay type: in vivo, mouse
Settings: for Tolerance Shift i.p.: repeated/control A50, i.p.
Method: In the following examples, male ICR mice(20-30 grams) were used. […] The solution was brought up to approximately pH 5.5 with 1.74 M NaOH and then the final volume adjusted with distilled water. […] Additional compounds used in these studies were dissolved in distilled water (i.c.v. injections) or physiological saline (i.p. injections).
Antinociception was assessed using either the 55° C. warm-water tail-flick test or the acetic-acid writhing assay. […] Each mouse was first tested for baseline latency by immersing its tail in the water and recording the time to response. Mice not responding within 5 sec were excluded from further testing. Mice were then administered the test compound and tested for antinociception at 10, 20, 30, 45, 60 and 90 min post-injection. A maximum score was assigned (100%) to animals not responding within 15 sec to avoid tissue damage. Antinociception was calculated by the following formula: % antinociception=100×(test latency-control latency)/(15-control latency). For the acetic acid writhing test, mice were injected i.p. with 0.9% acetic acid. They were then placed in a clear Plexiglas observation jar and the number of abdominal writhes recorded for 15 min (Mogil et al., Heritability of nociception I: responses of 11 inbred mouse strains on 12 measures of nociception. Pain 80:67-82,1999). Percent antinociception was calculated using the formula: % MPE (maximum possible effect)=100−((#writhes individual mouse/mean # writhes control group)×100).
Control mice received a vehicle injection (5 μl distilled water, i.c.v., −24 hr).

## CN1CC[C@]23c4c5ccc(O)c4O[C@H]2[C@@H](O)C=C[C@H]3[C@H]1C5 [morphine]
Icv injection
  agonist character in acetic acid writhing, i.c.v.: full agonist effect
repeated/control A50, i.c.v., A90 dose ×2 daily, 3 days
  Tolerance Shift i.c.v.: 12.5 fold
A90 dose ×2 daily, 3 days
  Tolerance Shift i.p.: approximately 2.2 fold
A90 dose ×2 daily, 3 days, listed as Morphine
  Tolerance Shift i.p.: 2.17 fold
